These are yes or no findings as the source states them, for the method shown. Binding seen in cells or lysates may run through a third protein. These calls come from enrichment with a bait or labelling near it, and not all partners need be listed.

Experimental findings from publication PMC9799981 are described below.

The target in the experiment is HA-tagged p54^nrb. Put plainly: affinity purification with mass spectrometry; anti-HA immunoprecipitation from the nuclear fraction (RIPA) of HL-1 cells transduced with HA-p54^nrb, in normoxia or hypoxia (1% O2, 4 hr); 150 μg protein, protein G beads overnight at 4 °C, elution with HA peptides; label-free quantitative ….

B1: DAZAP1 (protein, UniProt Q9JII5 1-406)
chain: MNSAGADEIGKLFVGGLDWSTTQETLRSYFSQYGEVVDCVIMKDKTTNQSRGFGFVKFKDPNCVGTVLASRPHTLDGRNIDPKPCTPRGMQPERTRPKEGWQKGPRSDSSKSNKIFVGGIPHNCGETELREYFKKFGVVTEVVMIYDAEKQRPRGFGFITFEDEQSVDQAVNMHFHDIMGKKVEVKRAEPRDSKNQAPGQPGASQWGSRVAPSAANGWAGQPPPTWQQGYGPQGMWVPAGQAIGGYGPPPAGRGAPPPPPPFTSYIVSTPPGGFPPPQGFPQGYGAPPQFSFGYGPPPPPPDQFAPPGVPPPPATPGAAPLAFPPPPSQAAPDMSKPPTAQPDFPYGQYGYGQDLSGFGQGFSDPSQQPPSYGGPSVPGSGGPPAGGSGFGRGQNHNVQGFHPYRR
As to B1, the binding entry is listed as “binds”.
